PubChem BioAssay AID2685 (National Center for Advancing Translational Sciences (NCATS), 2010)
This is one part of the list. Shown are side measurements of this screen, not its main read-out; they come without a call. Most of these compounds were active or inconclusive in the main read-out, so they are no random draw. Words in brackets tell the shape of the fitted curve; partial curves, single points and poor fits give uncertain potencies. Where a SMILES comes first, the peptide text is derived from it. The star is where a group is joined. OPac = O=C(CO*)c1ccccc1; Bz = O=C(c1ccccc1)*

Experiment: qHTS Assay for Lipid Storage Modulators in Drosophila S3 Cells;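 as to cell number change: cells counted by Cell Tracker Red CMTPX staining in the red channel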
Settings: BODIPY lipid droplet fluorescence, 18-24 h; for cell number change: measured here: cell count max response, cells fed with added oleic acid
Summary of the method: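 Laser-scanning cytometry quantifies lipid droplet accumulation (500–530 nm total intensity; droplet/cell object ratio) in oleic acid-fed (400 uM added) Drosophila S3 cells treated with a concentration series. 20 uM Triacsin C defined 100% inhibition.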

[1] = measured here: cell number channel AC50, cells fed with added oleic acid
[2] = measured here: lipid fluorescence (Fed channel) AC50, cells fed with added oleic acid

Compound | cell number change | AC50 [1] | AC50 [2]
Cc1ccsc1/C=N\NC(=O)CCc1c(C)n[nH]c1C | -43.4% | 29.1 µM [falling, single point] | –
CC#CCN(CC#CC)S(=O)(=O)c1ccc(-n2cnnn2)c(OC)c1 | -2.11% | – | 0.82 µM [rising, partial curve]
COc1ccc(N2CCN(C(=O)COC(=O)CNC(=O)c3ccc(C)cc3)CC2)cc1 | -1.68% | – | 16.4 µM [falling, partial curve, poor fit]
CC(C)(C)c1ccc(C(=O)N2CCN(S(=O)(=O)c3ccc(Br)s3)CC2)cc1 | -24.5% | – | 18.4 µM [falling, single point]
CCc1ccccc1NCC(=O)Nc1ccc(Cl)c(C(F)(F)F)c1 | -79.5% | 23.1 µM [falling, single point] | 29.1 µM [falling, single point]
CC(C)Oc1cccc(C(=O)C2CCCN(C(=O)c3ccccn3)C2)c1 (centres undefined) | 1.83% | – | 0.116 µM [rising, full curve]
CCN(CC)CCn1c(=S)[nH]c2ncccc2c1=O | -25.6% | 0.092 µM [falling, full curve, poor fit] | 3.66 µM [falling, full curve]
COc1cccc(-c2nc(CS(=O)CC(=O)NC3CCCC3)c(C)o2)c1 (centres undefined) | 34.7% | 2.06 µM [falling, partial curve] | 0.103 µM [rising, full curve, poor fit]
CCOc1ccc(CCNC(=O)C2CC(=O)N(c3ccccc3OCC)C2)cc1OCC (centres undefined) | -15.7% | – | 5.8 µM [rising, partial curve]
O=C(Nc1cccc(C(F)(F)F)c1)c1cc[n+]([O-])cc1 | 12.5% | – | 0.146 µM [rising, full curve, poor fit]
CCC(=O)Nc1cc(-c2nc3ncccc3o2)ccc1Cl | -6.76% | – | –
COc1ccccc1NC(=O)c1ccccc1C(=O)Nc1ccccc1OC | 10.9% | 0.116 µM [rising, full curve, poor fit] | –
CCN(C(=O)c1ccccc1Cl)c1ccccc1 | – | – | 0.146 µM [falling, full curve, poor fit]
COc1ccc(C(=O)OC/C(O)=C(\C#N)c2nc3ccccc3[nH]2)cc1S(=O)(=O)N1CCOCC1 | 32.1% | 14.6 µM [rising, partial curve] | 29.1 µM [rising, single point]
CCN(C(=O)CSc1nnc(-c2ccccc2Br)o1)C1CCS(=O)(=O)C1 (centres undefined) | -7.13% | 0.206 µM [falling, partial curve, poor fit] | 0.231 µM [falling, partial curve, poor fit]
Cc1cc(C)nc(SCCC(=O)Nc2ccc(F)cc2)n1 | 6.92% | – | 16.4 µM [falling, partial curve]
COCCCn1c(SCc2ccccc2)nc2cc(OC)c(OC)cc2c1=N | -25.9% | – | 29.1 µM [falling, single point]
CCCCNC(=O)NC12CC3CC(CC(C3)C1)C2 | 2.94% | – | 6.51 µM [rising, single point]
CC(C)Cc1ccc(C(=O)NCc2ccc3c(c2)OCO3)o1 | 29.1% | – | 16.4 µM [rising, partial curve]

14 entries out of the list, ordered by molecular weight, smallest number first:
Compound | cell number change | AC50 [1] | AC50 [2]
CCN(C(=O)c1ccccc1Cl)c1ccccc1 | – | – | 0.146 µM [falling, full curve, poor fit]
CCN(CC)CCn1c(=S)[nH]c2ncccc2c1=O | -25.6% | 0.092 µM [falling, full curve, poor fit] | 3.66 µM [falling, full curve]
O=C(Nc1cccc(C(F)(F)F)c1)c1cc[n+]([O-])cc1 | 12.5% | – | 0.146 µM [rising, full curve, poor fit]
Cc1ccsc1/C=N\NC(=O)CCc1c(C)n[nH]c1C | -43.4% | 29.1 µM [falling, single point] | –
CC(C)Cc1ccc(C(=O)NCc2ccc3c(c2)OCO3)o1 | 29.1% | – | 16.4 µM [rising, partial curve]
CCC(=O)Nc1cc(-c2nc3ncccc3o2)ccc1Cl | -6.76% | – | –
Cc1cc(C)nc(SCCC(=O)Nc2ccc(F)cc2)n1 | 6.92% | – | 16.4 µM [falling, partial curve]
CC(C)Oc1cccc(C(=O)C2CCCN(C(=O)c3ccccn3)C2)c1 (centres undefined) | 1.83% | – | 0.116 µM [rising, full curve]
CCc1ccccc1NCC(=O)Nc1ccc(Cl)c(C(F)(F)F)c1 | -79.5% | 23.1 µM [falling, single point] | 29.1 µM [falling, single point]
COc1ccccc1NC(=O)c1ccccc1C(=O)Nc1ccccc1OC | 10.9% | 0.116 µM [rising, full curve, poor fit] | –
COCCCn1c(SCc2ccccc2)nc2cc(OC)c(OC)cc2c1=N | -25.9% | – | 29.1 µM [falling, single point]
CCOc1ccc(CCNC(=O)C2CC(=O)N(c3ccccc3OCC)C2)cc1OCC (centres undefined) | -15.7% | – | 5.8 µM [rising, partial curve]
CCN(C(=O)CSc1nnc(-c2ccccc2Br)o1)C1CCS(=O)(=O)C1 (centres undefined) | -7.13% | 0.206 µM [falling, partial curve, poor fit] | 0.231 µM [falling, partial curve, poor fit]
CC(C)(C)c1ccc(C(=O)N2CCN(S(=O)(=O)c3ccc(Br)s3)CC2)cc1 | -24.5% | – | 18.4 µM [falling, single point]

Next compounds follow.

Compound | cell number change | AC50 [1] | AC50 [2]
Cc1cc(NC(=O)CSc2nnc(-c3c[nH]c4ccccc34)n2C)no1 | -14.3% | – | 20.6 µM [falling, single point]
O=C1CN(c2nc(-c3ccccc3)c3ccccc3n2)c2ccccc2N1 | 2.38% | – | 2.31 µM [rising, single point]
Cc1ccc(S(=O)(=O)N2CCOCC(=O)NCCOCCNC(=O)COCC2)cc1 | 12.6% | – | 0.82 µM [rising, full curve]
Cn1c(=O)c2c(n(C)c1=O)=NC1(CCCCC1)ON=2 | -17.9% | – | 3.26 µM [falling, partial curve]
O=C(Nc1ccc(S(=O)(=O)Nc2ccccn2)cc1)c1cccc(Cl)c1 | 19.2% | – | –
O=C1CC(c2ccccc2Cl)=NN(c2ncnc3ccccc23)C1=O | -44.6% | – | 7.31 µM [falling, partial curve, poor fit]
CCOc1ccccc1NC(=O)C(Sc1nnnn1C)c1ccccc1 (centres undefined) | – | – | 0.13 µM [falling, single point]
Cn1c(C(=O)O)c(CC(=O)NCC2COc3ccccc3O2)c2ccccc21 (centres undefined) | -7.13% | 6.51 µM [rising, single point] | –
Cc1nn(S(=O)(=O)c2cccs2)c(C)c1Sc1ccccc1 | -54.3% | 1.64 µM [falling, partial curve] | –
Cc1ccccc1C(=O)OC1OC(=O)C(Cl)=C1Nc1ccccc1 (centres undefined) | 21.1% | – | 29.1 µM [falling, single point]
CC(C)[C@H](NC(=O)c1ccco1)C(=O)N(C)Cc1ccc(C(F)(F)F)cc1 | -1.3% | – | 29.1 µM [rising, partial curve, poor fit]
COc1cc(/C=C/C(=O)c2ccc3c(c2)OCO3)cc(Cl)c1O | -89.5% | 20.6 µM [falling, partial curve] | –
CCN(CC)c1ccc(/C=C/c2cc(-c3ccccc3)c3ccccc3n2)cc1 | -45.8% | 32.6 µM [falling, single point] | 23.1 µM [falling, partial curve]
CCc1nnc(NC(=O)C2CCCN(S(=O)(=O)c3ccc(OC)cc3)C2)s1 (centres undefined) | -18.9% | – | 2.31 µM [falling, partial curve, poor fit]
CN(C)/C=N/c1c(C#N)cnn1-c1nc2ccccc2s1 | – | 3.66 µM [rising, partial curve] | 4.61 µM [rising, partial curve]
COc1cc(NC(=O)c2cc(CC(C)C)on2)c(OC)cc1Cl | 26.7% | – | 1.84 µM [rising, full curve]
Cc1ccc(S(=O)(=O)CCC(=O)OCC(=O)N(Cc2ccccc2)C(C)C)cc1 | -9.66% | – | 0.116 µM [falling, full curve, poor fit]
COc1c(/C=C2\SC(=Nc3ccccc3Cl)NC2=O)cccc1[N+](=O)[O-] | -47% | 8.2 µM [falling, partial curve, poor fit] | –
CCN1CCCC1CNC(=O)C(=O)NC(C)c1ccccc1 (centres undefined) | 3.4% | – | 29.1 µM [rising, single point]

Compound | cell number change | AC50 [1] | AC50 [2]
Cc1nn(C)c(C)c1NS(=O)(=O)c1ccccc1 | 9.5% | – | 2.59 µM [falling, full curve]
CC(NC(=O)c1cc2c(cc1Cl)N1CCCCCC1=NS2(=O)=O)c1ccc(S(N)(=O)=O)cc1 (centres undefined) | -31% | 4.11 µM [falling, full curve, poor fit] | –
Cc1cc(C)c2[nH]c(=O)c(C(c3nnnn3Cc3ccc4c(c3)OCO4)N3CCCC3)cc2c1 (centres undefined) | – | 5.8 µM [rising, single point] | 0.92 µM [rising, full curve]
CCc1ccccc1NC(=O)N[C@@H](C)C(=O)O | – | 0.651 µM [falling, single point] | –
COc1ccc(CNC(=O)CCC(=O)c2ccccc2)cc1 | -30.8% | 2.59 µM [falling, full curve, poor fit] | –
COc1ccc(NC(=O)CN(C)C(=O)c2ccccc2OCC(=O)Nc2cccc(C(F)(F)F)c2)cc1 | – | – | 3.26 µM [rising, single point]
O=C(CSc1nnc(-c2cccs2)n1-c1ccccc1)Nc1ccccc1 | -11.3% | 5.8 µM [falling, single point] | 6.51 µM [falling, single point]
C[C@H](NC(=O)COc1ccc(Cl)cc1)C(=O)N1CCC2(CC1)NCCc1[nH]cnc12 | 64.7% | 32.6 µM [rising, single point] | 10.3 µM [rising, partial curve]
O=C(c1ccc(F)cc1)c1cn[nH]c1-c1ccccc1O | -7.25% | – | 1.84 µM [falling, single point]
COc1cccc(NC(=O)CSc2nc3ncc(Br)cc3[nH]2)c1 | -11.3% | – | 4.11 µM [falling, single point]
O=C(CNC(=O)c1ccccc1)NCC(=O)OCC(=O)c1ccccc1 (Bz-Gly-Gly-OPac) | 10.6% | – | 29.1 µM [falling, single point]
C=CCc1c(C)nc2cc(-c3ccccc3)[nH]n2c1=O | – | – | 6.51 µM [rising, partial curve]
CCCCn1c(=O)c(C(=O)OCC)c(O)c2ccccc21 | 42.9% | 0.116 µM [rising, full curve] | 25.9 µM [falling, partial curve]
CCOC(=O)N1CCN(Cc2nc3c(c(=O)n(C)c(=O)n3C)n2CCC(C)C)CC1 | -1.63% | 0.82 µM [falling, full curve, poor fit] | 0.82 µM [falling, full curve]
O=C(CCOc1ccccc1)NCC(c1ccco1)N1CCCCC1 (centres undefined) | -5.17% | – | 29.1 µM [falling, single point]
CCN1CCN(C(=O)C2CCN(Cc3nc(-c4cccc(Cl)c4)oc3C)CC2)CC1 | 15.4% | – | –
Cc1cccc2cc(C(c3nnnn3Cc3ccccc3)N3CCCc4ccccc43)c(=O)[nH]c12 (centres undefined) | – | 3.66 µM [rising, single point] | 3.66 µM [rising, partial curve]
C[C@@H]1C=C(C(=O)NCc2nc3ccccc3[nH]2)O[C@H](OCc2ccc(CO)cc2)C1 | -5.68% | – | 0.411 µM [rising, single point]
